We go through one molecule from patent US20160333065A1.

No constants are given. Whether binding was seen depends on the method and setting. A result given as binding can be weak or reduced; the word gives no strength.

The target of the test is HLA-B*3501 (human). Briefly: competition-based cellular HLA class I binding assay (stripped B-LCL, flow cytometry); column 'HLA class I molecule in which the peptide binds'. Background: In flow cytometry, cells or beads pass a laser one at a time.

B1: PRAME peptide 48-57 … (peptide)
peptide: LPRELFPPLF
With B1, the binding result is “binds”.
